By UniProt entry, the sequences of proteins in these tests, tags left out.
UniProt Q03164, whole entry, looked up: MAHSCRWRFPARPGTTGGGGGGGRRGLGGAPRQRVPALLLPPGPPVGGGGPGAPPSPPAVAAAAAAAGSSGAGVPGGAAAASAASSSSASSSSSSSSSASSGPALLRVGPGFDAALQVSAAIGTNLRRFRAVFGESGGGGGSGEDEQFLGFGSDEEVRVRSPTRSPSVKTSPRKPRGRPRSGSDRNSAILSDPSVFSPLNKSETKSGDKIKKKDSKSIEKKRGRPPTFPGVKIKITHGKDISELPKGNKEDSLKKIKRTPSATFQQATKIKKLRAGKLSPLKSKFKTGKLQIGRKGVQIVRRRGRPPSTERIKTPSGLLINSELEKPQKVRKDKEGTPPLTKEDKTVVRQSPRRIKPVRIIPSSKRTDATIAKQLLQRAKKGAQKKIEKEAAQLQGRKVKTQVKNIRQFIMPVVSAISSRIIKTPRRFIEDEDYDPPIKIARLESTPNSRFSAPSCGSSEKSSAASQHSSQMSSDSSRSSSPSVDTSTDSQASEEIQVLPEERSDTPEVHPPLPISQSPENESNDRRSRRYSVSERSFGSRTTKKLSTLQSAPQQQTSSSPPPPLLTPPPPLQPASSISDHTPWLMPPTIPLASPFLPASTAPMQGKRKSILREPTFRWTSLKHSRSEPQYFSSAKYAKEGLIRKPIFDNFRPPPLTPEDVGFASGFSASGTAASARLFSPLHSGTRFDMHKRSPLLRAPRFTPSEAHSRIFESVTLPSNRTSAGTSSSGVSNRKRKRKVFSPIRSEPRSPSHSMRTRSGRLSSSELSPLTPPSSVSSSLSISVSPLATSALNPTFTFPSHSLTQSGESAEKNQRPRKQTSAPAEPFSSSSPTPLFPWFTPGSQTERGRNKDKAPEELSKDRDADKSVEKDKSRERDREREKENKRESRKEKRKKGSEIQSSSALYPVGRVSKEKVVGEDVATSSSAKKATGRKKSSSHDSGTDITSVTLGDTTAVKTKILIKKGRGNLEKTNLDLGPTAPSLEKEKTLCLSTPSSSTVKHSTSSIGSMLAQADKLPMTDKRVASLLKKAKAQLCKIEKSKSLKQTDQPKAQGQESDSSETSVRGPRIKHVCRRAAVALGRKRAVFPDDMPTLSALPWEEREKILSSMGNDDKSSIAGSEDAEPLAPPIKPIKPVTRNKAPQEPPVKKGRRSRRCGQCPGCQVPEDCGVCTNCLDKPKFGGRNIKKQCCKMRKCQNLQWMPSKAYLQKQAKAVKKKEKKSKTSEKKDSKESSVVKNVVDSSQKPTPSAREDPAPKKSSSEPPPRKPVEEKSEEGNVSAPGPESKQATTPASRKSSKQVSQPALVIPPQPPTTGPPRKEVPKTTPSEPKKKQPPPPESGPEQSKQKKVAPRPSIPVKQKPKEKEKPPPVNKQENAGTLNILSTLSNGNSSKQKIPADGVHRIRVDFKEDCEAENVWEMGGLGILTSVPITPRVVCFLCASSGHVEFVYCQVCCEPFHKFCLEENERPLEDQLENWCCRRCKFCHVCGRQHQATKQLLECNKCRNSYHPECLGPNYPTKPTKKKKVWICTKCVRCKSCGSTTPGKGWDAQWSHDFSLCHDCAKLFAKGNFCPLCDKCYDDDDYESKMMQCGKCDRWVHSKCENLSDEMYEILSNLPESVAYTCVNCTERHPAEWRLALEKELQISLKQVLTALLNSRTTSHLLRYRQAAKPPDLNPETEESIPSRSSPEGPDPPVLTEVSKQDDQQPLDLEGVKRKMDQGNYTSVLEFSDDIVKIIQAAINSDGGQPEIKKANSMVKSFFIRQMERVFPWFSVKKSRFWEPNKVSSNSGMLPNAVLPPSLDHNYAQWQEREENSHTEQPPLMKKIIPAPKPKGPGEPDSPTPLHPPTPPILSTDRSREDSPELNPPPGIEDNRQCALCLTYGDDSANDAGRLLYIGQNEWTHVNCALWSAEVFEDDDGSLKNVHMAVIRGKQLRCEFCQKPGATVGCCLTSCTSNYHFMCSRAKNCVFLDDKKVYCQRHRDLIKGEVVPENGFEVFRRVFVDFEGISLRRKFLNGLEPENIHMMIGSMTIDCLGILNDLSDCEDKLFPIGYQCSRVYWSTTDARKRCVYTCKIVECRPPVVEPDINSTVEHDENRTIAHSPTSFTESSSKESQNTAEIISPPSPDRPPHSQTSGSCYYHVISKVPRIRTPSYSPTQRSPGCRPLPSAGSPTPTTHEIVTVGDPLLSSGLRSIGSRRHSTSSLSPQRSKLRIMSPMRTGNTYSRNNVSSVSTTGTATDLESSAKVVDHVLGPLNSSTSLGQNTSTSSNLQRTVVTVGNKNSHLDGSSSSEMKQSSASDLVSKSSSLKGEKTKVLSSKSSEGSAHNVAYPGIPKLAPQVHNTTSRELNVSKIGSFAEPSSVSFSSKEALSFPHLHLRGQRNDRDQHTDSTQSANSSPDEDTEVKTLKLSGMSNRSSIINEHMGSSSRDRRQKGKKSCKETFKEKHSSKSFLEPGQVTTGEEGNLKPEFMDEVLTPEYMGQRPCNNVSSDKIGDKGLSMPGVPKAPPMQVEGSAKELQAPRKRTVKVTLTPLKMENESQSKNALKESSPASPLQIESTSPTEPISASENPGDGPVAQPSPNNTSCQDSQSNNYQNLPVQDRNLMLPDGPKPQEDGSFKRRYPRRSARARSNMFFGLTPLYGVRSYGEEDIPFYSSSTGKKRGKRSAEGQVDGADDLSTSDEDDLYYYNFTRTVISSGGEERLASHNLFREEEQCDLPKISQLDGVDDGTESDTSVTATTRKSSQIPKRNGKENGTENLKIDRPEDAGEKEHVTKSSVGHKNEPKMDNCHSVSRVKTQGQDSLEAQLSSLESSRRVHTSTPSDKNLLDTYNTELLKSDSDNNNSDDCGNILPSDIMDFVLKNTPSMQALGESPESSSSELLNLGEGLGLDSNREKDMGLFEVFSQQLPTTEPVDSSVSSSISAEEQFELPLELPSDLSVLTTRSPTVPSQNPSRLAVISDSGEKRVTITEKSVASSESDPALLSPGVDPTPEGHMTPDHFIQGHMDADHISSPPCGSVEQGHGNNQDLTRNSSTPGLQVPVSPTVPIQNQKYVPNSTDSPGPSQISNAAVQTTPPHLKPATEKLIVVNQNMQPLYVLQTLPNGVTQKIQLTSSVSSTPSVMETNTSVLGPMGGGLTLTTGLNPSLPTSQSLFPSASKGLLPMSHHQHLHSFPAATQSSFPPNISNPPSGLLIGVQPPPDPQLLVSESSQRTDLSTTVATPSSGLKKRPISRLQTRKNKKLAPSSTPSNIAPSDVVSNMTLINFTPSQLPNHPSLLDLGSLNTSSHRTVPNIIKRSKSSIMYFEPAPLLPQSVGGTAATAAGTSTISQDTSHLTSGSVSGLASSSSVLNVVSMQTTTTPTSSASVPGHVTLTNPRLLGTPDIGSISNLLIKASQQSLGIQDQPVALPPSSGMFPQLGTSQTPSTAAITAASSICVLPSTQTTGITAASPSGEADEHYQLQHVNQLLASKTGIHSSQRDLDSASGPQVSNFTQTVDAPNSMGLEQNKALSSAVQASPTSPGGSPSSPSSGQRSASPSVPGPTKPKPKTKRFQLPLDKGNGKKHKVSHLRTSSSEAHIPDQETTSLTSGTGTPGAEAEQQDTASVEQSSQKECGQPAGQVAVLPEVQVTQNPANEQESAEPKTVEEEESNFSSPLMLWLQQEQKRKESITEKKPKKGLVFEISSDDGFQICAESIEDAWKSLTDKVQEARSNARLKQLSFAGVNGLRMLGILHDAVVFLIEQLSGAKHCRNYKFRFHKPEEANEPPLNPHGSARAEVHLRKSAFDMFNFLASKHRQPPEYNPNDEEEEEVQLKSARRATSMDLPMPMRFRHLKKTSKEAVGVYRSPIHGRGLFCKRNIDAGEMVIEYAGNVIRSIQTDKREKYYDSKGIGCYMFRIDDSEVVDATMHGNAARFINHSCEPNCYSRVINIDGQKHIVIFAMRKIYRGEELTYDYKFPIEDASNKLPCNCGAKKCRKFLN

The whole screen tested about 290,000 compounds, of which about 110 (0.038%) were called active. Inconclusive results, whose numbers are uncertain, are shown with a selection of clear calls. Calls follow the shape of the dose curve; as a rule, active = well fitted inhibition curve with a large enough effect in the polarisation, with a control signal flat (not every such curve was filed as active); inconclusive = small, poorly fitted or top-dose-only effect, or effect the other way, or a change in a side signal; inactive = no such curve, though single readings can be large or run the other way; the % refers to the polarisation. Potencies beside an inconclusive call are fits to weak or partial responses and may not hold up. “Side channel” marks fits to a control or component signal instead of the main read-out.
Each molecule was assayed against Histone-lysine N-methyltransferase 2A (Homo sapiens) (UniProt Q03164) (assay: qHTS Fluorescence Polarization Assay for Inhibitors of MLL CXXC domain - DNA interaction). Conditions: MLL-CXXC / FITC-HOXA9 DNA fluorescence polarization; series mostly up to 115 µM.
Method in brief: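 Fluorescence polarization: 7 uM MLL-CXXC (stock) preincubated 5 min with compounds, then 50 nM fluorescein-HOX-A9 DNA (stock) added; 30 min ambient. Buffer 50 mM Tris-HCl pH 7.5, 50 mM NaCl, 1 mM DTT, 0.05% BSA.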
CCOC(=O)N1CCN(Cc2nc3cc(NC(=O)CC)ccc3n2C)CC1 was tested, and the Potency was inconclusive: 31.6 µM [fluorescent, side channel, partial curve]. CN(C)c1ccc(N=Nc2nc3ccccc3n2C)cc1 was tested, and the Potency was inconclusive: 28.2 µM [quencher, side channel, partial curve]. O=C(Cc1ccccc1F)Nc1nc(-c2cccs2)cs1 was tested, and the Potency was “inactive”. For COc1ccccc1N1CCN(CCNC(=O)Nc2cccc(C)c2C)CC1, the Potency was inconclusive: 35.5 µM [quencher, side channel, single point]. With CCc1sc(C(C2C(=O)CC(C)(C)CC2=O)C2C(=O)CC(C)(C)CC2=O)cc1[N+](=O)[O-] the Potency was inconclusive: 22.4 µM [inhibitor, partial curve]. With CCOc1ccc2nc(N3CCC(C(=O)Nc4nnc(CC)s4)CC3)sc2c1 the Potency was inconclusive: 63.1 µM [fluorescent, side channel, single point]. CCOc1ccc(-n2c(O)c(/C=N/c3ccnn3Cc3ccncc3)c3ccccc3c2=O)cc1 was tested, and the Potency was inconclusive: 39.8 µM [fluorescent, side channel, single point]. C/C(=C\C(=O)c1sccc1Cl)N(C)C was tested, and the Potency was inconclusive: 1.26 µM [inhibitor, full curve, poor fit]. For NS(=O)(=O)c1ccc(NC(=O)c2ccccc2Cl)cc1, the Potency was inconclusive: 14.1 µM [quencher, side channel, single point]. CCOC(=O)CSc1nc(=O)n2cc(C)ccc2n1 was tested, and the Potency was inconclusive: 31.6 µM [quencher, side channel, partial curve]. With CCCCNC(=O)CC(C(=O)N1CCc2ccccc21)n1ccnc1 (stereo not drawn) the Potency was “inactive”. For Cc1c(C)n(CCO)c2ncnc(Nc3ccc(F)cc3)c12, the Potency was inconclusive: 12.6 µM [fluorescent, side channel, single point]. For O=C(Nc1cc(S(=O)(=O)N2CCOCC2)ccc1O)c1ccc2c(c1)S(=O)(=O)c1ccccc1C2=O, the Potency was inconclusive: 89.1 µM [inhibitor, single point]. C=C(C)COc1ccc(-c2nc(N)ncc2Oc2ccc(OC)cc2)c(O)c1 was tested, and the Potency was “inactive”. With CN(C)C(=O)c1cc(C(=O)c2ccc(F)cc2F)c[nH]1 the Potency was inconclusive: 44.7 µM [fluorescent, side channel, partial curve]. Cc1nc(COC(=O)c2cc(O)c3ccccc3c2O)cs1 was tested, and the Potency was “inactive”. For Cc1nn2c(=O)cc(CSCC(=O)Nc3ccccc3F)nc2s1, the Potency was “inactive”. With CC1=NOC(=O)/C1=C\c1ccc(-c2ccc(Cl)cc2Cl)o1 the Potency was inconclusive: 17.8 µM [inhibitor, partial curve].
Potency is read from the fitted curve at half-maximal effect.
